Publication PMC4210263
Results are given in words; binding and its absence hold for the method and conditions named. In cells and extracts the contact can be indirect. Here binding means that the protein was enriched with, or labelled near, the bait; the list need not be complete.

By UniProt entry, the sequences of proteins in these tests, tags left out. Residues count along the entry.
UniProt P16858: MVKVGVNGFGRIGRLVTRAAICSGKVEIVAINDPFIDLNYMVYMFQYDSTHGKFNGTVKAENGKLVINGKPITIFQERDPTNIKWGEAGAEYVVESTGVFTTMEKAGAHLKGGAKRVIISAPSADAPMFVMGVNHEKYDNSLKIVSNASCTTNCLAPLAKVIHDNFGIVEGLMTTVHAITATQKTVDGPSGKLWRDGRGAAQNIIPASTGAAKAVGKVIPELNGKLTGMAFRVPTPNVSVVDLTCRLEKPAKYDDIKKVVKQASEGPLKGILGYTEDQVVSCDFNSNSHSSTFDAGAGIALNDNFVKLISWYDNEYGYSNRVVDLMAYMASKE
UniProt Q5SX39: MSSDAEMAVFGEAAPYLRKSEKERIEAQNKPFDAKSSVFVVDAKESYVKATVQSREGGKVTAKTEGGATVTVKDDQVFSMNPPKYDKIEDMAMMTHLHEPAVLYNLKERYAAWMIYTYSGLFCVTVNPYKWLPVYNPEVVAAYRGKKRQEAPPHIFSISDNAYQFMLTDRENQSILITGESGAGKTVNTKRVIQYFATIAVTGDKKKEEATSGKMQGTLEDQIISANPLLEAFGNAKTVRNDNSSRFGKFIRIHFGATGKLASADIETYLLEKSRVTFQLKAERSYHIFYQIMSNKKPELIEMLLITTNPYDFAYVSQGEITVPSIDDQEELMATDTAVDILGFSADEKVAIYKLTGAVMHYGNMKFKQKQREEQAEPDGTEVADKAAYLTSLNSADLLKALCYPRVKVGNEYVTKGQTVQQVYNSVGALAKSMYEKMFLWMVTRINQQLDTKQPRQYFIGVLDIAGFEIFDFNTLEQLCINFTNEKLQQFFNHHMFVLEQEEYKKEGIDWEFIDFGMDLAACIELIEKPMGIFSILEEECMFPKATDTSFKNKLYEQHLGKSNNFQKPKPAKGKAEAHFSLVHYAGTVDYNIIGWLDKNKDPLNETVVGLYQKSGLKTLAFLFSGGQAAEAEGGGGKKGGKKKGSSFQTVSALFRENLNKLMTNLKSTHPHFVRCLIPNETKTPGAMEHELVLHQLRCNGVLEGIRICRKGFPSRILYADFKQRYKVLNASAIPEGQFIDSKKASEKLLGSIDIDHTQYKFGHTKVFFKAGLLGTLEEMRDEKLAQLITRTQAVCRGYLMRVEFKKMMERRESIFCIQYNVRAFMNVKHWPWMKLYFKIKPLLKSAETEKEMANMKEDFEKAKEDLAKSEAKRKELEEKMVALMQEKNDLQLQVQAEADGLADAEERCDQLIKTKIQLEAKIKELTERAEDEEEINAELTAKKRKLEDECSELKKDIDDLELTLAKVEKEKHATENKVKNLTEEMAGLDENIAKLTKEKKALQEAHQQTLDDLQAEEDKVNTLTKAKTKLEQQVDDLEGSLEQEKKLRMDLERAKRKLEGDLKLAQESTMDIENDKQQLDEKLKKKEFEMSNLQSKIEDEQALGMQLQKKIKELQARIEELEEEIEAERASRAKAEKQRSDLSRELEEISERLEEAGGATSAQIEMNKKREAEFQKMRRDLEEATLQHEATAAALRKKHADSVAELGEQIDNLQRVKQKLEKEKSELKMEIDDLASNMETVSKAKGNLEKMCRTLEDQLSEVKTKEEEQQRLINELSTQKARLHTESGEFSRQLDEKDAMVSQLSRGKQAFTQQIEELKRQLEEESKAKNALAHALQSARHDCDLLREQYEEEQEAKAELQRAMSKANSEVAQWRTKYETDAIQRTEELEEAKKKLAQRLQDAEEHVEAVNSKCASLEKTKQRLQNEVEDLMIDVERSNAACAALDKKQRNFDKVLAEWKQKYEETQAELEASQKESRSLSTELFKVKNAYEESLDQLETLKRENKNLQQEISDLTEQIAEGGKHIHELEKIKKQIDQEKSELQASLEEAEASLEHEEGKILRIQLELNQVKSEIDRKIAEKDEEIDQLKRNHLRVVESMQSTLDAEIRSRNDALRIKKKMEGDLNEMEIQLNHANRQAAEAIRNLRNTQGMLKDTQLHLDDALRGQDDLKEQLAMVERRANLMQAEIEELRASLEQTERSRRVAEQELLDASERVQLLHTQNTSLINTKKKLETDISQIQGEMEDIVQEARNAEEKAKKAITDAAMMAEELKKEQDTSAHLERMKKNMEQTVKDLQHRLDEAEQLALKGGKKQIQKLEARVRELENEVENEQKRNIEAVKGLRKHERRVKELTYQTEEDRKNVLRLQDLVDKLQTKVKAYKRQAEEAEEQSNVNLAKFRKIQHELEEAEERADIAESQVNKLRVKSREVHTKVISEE
UniProt Q02566: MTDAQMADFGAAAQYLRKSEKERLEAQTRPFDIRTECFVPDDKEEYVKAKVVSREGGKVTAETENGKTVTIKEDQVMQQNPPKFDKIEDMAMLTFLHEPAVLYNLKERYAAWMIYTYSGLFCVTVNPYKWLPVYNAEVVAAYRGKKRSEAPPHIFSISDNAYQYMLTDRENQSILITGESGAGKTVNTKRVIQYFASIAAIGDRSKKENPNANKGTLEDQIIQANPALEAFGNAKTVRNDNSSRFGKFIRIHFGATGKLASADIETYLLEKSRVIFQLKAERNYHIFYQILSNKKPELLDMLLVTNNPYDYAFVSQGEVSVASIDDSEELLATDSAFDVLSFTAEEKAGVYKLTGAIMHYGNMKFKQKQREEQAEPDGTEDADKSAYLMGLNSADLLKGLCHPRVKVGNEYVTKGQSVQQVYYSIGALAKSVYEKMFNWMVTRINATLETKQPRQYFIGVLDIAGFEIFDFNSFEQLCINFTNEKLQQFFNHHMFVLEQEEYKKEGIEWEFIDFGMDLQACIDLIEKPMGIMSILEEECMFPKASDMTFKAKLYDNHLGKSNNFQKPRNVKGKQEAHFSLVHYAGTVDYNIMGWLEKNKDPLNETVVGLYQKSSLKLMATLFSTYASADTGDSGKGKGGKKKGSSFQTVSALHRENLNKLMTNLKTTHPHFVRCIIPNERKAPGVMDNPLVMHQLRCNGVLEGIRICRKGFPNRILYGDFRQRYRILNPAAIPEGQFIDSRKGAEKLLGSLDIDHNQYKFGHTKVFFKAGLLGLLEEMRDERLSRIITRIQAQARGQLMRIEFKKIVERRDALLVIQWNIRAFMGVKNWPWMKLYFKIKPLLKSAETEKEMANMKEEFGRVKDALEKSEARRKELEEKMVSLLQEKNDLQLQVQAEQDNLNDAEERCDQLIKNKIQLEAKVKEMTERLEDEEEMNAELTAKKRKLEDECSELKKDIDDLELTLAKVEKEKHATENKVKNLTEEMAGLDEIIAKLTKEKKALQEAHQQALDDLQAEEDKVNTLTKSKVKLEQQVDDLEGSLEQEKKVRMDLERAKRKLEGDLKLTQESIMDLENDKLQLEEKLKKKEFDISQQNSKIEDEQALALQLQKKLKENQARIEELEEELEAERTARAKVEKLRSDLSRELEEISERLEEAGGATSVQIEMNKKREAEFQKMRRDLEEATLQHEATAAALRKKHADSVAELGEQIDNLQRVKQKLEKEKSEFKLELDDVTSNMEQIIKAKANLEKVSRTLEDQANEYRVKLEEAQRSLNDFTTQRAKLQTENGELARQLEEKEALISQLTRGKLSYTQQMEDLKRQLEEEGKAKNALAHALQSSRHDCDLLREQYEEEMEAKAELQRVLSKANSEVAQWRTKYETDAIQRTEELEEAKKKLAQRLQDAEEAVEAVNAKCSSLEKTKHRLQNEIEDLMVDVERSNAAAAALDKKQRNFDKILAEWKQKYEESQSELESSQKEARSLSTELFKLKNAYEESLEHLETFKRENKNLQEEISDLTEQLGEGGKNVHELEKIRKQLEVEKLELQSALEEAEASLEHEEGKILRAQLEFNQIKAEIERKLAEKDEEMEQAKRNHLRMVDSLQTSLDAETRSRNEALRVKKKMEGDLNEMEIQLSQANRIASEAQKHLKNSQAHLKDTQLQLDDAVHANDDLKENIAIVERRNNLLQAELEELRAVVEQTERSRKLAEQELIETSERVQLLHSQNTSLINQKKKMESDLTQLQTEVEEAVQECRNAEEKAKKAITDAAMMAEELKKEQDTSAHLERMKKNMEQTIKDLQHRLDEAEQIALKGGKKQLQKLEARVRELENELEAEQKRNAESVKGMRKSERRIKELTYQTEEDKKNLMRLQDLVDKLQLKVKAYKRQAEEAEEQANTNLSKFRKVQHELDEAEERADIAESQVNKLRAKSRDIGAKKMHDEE
UniProt Q922F4: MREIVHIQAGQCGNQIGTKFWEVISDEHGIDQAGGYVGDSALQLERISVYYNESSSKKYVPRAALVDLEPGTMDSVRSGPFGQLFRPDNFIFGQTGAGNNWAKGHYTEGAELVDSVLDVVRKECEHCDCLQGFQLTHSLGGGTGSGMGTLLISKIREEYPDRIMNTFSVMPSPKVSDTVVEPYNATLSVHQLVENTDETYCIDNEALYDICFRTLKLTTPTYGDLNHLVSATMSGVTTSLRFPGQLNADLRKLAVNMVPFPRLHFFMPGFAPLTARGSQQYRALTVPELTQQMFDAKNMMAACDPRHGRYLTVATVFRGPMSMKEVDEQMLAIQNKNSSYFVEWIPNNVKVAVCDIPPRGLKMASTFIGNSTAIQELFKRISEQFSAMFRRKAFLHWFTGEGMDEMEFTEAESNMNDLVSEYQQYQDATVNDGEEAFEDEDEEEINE
UniProt Q9CPQ1: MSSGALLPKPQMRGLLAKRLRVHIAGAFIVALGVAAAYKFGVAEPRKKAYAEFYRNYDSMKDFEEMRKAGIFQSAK
UniProt P63038, residues 27-573: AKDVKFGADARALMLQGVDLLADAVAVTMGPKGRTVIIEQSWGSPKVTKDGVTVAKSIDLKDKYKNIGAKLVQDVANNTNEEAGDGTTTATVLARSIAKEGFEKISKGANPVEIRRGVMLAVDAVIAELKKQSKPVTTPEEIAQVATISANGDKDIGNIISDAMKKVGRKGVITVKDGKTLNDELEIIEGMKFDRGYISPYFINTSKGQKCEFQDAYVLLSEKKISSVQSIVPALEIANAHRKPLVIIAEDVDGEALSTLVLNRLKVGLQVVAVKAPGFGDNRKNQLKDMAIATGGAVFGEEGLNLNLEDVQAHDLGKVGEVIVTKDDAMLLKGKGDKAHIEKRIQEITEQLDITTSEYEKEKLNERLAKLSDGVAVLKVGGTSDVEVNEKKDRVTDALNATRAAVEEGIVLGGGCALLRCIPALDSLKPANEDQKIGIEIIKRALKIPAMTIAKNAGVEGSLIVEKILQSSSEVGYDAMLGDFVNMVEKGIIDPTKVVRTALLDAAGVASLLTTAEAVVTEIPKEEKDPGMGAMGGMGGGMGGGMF
UniProt P68372: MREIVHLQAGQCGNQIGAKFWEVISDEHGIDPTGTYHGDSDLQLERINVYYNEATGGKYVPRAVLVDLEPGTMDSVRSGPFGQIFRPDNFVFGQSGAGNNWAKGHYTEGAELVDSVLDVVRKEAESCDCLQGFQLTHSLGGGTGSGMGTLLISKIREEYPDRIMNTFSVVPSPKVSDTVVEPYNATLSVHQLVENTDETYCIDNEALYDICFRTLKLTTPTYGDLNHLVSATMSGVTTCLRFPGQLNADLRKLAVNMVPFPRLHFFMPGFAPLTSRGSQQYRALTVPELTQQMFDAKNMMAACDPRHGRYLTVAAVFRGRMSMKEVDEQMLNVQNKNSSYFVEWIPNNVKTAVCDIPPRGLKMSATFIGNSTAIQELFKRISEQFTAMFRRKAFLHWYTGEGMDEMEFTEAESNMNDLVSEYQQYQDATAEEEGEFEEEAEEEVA
UniProt P68373: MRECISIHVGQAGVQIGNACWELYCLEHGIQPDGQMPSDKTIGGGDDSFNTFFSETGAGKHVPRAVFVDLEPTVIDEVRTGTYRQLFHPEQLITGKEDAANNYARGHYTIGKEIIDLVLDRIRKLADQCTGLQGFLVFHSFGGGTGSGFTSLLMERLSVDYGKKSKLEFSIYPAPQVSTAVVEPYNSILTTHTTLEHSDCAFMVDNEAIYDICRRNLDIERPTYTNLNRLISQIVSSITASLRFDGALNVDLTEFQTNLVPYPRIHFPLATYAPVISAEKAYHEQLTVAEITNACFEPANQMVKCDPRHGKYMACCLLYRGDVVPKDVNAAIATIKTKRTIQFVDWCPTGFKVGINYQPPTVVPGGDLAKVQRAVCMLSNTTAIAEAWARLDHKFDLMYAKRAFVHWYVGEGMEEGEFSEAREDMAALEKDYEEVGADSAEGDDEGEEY

B1: Transformer-2 protein homolog α (protein, UniProt Q6PFR5 1-281)
chain: MSDVEENNFEGRESRSQSKSPTGTPARVKSESRSGSRSPSRVSKHSESHSRSRSKSRSRSRRHSHRRYTRSRSHSHRRRSRSRSYTPEYRRRRSRSHSPMSNRRRHTGSRANPDPNTCLGVFGLSLYTTERDLREVFSRYGPLSGVNVVYDQRTGRSRGFAFVYFERIDDSKEAMERANGMELDGRRIRVDYSITKRAHTPTPGIYMGRPTHSGGGGGGGGGGGGGGGGGGGRRRDSYYDRGYDRGYDRYEDYDYRRRSPSPYYSRYRSRSRSRSYSPRRY
B2: tRNA wybutosin-synthesizing protein 3 homolog (enzyme, UniProt Q8BSA9 1-257)
chain: MDRSAEFGRWKAQSLSKADLSRKGSVDEDAVEVVELLNSREEFFTTSSCAGRILLLDGSTEGSGVQKQHCCWLLVTHKPCARDDVMAALKGATSEAVLKFEPFILHVQCRTLQDAQTLHSVAIDSGFRNSGITVGKRGKTMLAVRGTHGLEVPLTHKGKLMVTEEYIEFLLTIANQKMEENKRRIGRFYNYLQHALKRETISNSHSKIKERNNPLCTHKNRRSQGKAQGPSTTEDNGRELEDGDGLEISAALFLGDD
B3: Succinyl-CoA ligase [ADP-forming] β (enzyme, UniProt Q9Z2I9 54-463)
chain: SLHEYLSMELLQEAGVSVPKGFVAKSSDEAYAIAKKLGSKDVVIKAQVLAGGRGKGTFTSGLKGGVKIVFSPEEAKAVSSQMIGQKLITKQTGEKGRICNQVLVCERKYPRREYYFAITMERSFQGPVLIGSAQGGVNIEDVAAENPEAIVKEPIDIVEGIKKEQAVTLAQKMGFPSNIVDSAAENMIKLYNLFLKYDATMVEINPMVEDSDGKVLCMDAKINFDSNSAYRQKKIFDLQDWSQEDERDKEAANADINYIGLDGSIGCLVNGAGLAMATMDIIKLHGGTPANFLDVGGGATVQQVTEAFKLITSDKKVQAILVNIFGGIMRCDVIAQGIVMAVKDLEIRIPVVVRLQGTRVDDAKALIADSGLKILACDDLDEAAKMVVKLSEIVTLAKEAHVDVKFQLPI
B4: Aconitate hydratase (enzyme, UniProt Q99KI0 28-780)
chain: QRAKVAMSHFEPSEYIRYDLLEKNINIVRKRLNRPLTLSEKIVYGHLDDPANQEIERGKTYLRLRPDRVAMQDATAQMAMLQFISSGLPKVAVPSTIHCDHLIEAQVGGEKDLRRAKDINQEVYNFLATAGAKYGVGFWRPGSGIIHQIILENYAYPGVLLIGTDSHTPNGGGLGGICIGVGGADAVDVMAGIPWELKCPKVIGVKLTGSLSGWTSPKDVILKVAGILTVKGGTGAIVEYHGPGVDSISCTGMATICNMGAEIGATTSVFPYNHRMKKYLSKTGRTDIANLAEEFKDHLVPDPGCQYDQVIEINLNELKPHINGPFTPDLAHPVADVGTVAEKEGWPLDIRVGLIGSCTNSSYEDMGRSAAVAKQALAHGLKCKSQFTITPGSEQIRATIERDGYAQILRDVGGIVLANACGPCIGQWDRKDIKKGEKNTIVTSYNRNFTGRNDANPETHAFVTSPEIVTALAIAGTLKFNPETDFLTGKDGKKFKLEAPDADELPRSDFDPGQDTYQHPPKDSSGQRVDVSPTSQRLQLLEPFDKWDGKDLEDLQILIKVKGKCTTDHISAAGPWLKFRGHLDNISNNLLIGAINIENGKANSVRNAVTQEFGPVPDTARYYKKHGIRWVVIGDENYGEGSSREHAALEPRHLGGRAIITKSFARIHETNLKKQGLLPLTFADPSDYNKIHPVDKLTIQGLKDFAPGKPLKCVIKHPNGTQETILLNHTFNETQIEWFRAGSALNRMKELQQ
B5: Isocitrate dehydrogenase [NAD] α (enzyme, UniProt Q9D6R2 28-366)
chain: AGGVQTVTLIPGDGIGPEISASVMKIFDAAKAPIQWEERNVTAIQGPGGKWMIPPEAKESMDKNKMGLKGPLKTPIAAGHPSMNLLLRKTFDLYANVRPCVSIEGYKTPYTDVNIVTIRENTEGEYSGIEHVIVDGVVQSIKLITEEASKRIAEFAFEYARNNHRSNVTAVHKANIMRMSDGLFLQKCREVAENCKDIKFNEMYLDTVCLNMVQDPSQFDVLVMPNLYGDILSDLCAGLIGGLGVTPSGNIGANGVAIFESVHGTAPDIAGKDMANPTALLLSAVMMLRHMGLFDHAAKIEAACFATIKDGKSLTKDLGGNAKCSDFTEEICRRVKDLD
B6: Phosphate carrier (protein, UniProt Q8VEM8 46-357)
chain: AVEEYSCEFGSMKYYALCGFGGVLSCGLTHTAVVPLDLVKCRMQVDPQKYKGIFNGFSITLKEDGVRGLAKGWAPTLIGYSMQGLCKFGFYEVFKALYSNILGEENTYLWRTSLYLASSASAEFFADIALAPMEAAKVRIQTQPGYANTLREAVPKMYKEEGLNAFYKGVAPLWMRQIPYTMMKFACFERTVEALYKFVVPKPRSECTKAEQLVVTFVAGYIAGVFCAIVSHPADSVVSVLNKEKGSTASQVLQRLGFRGVWKGLFARIIMIGTLTALQWFIYDSVKVYFRLPRPPPPEMPESLKKKLGLTE
B7: Alpha-crystallin B (protein, UniProt P23927 1-175)
chain: MDIAIHHPWIRRPFFPFHSPSRLFDQFFGEHLLESDLFSTATSLSPFYLRPPSFLRAPSWIDTGLSEMRLEKDRFSVNLDVKHFSPEELKVKVLGDVIEVHGKHEERQDEHGFISREFHRKYRIPADVDPLTITSSLSSDGVLTVNGPRKQVSGPERTIPITREEKPAVAAAPKK

Key:
[1] = molecular target: glyceraldehyde-3-phosphate dehydrogenase (mouse (endogenous in heart)) (UniProt P16858); test: affinity purification with mass spectrometry; mitochondrial fraction of Langendorff-perfused mouse hearts (control perfusion or 100 µmol/L GSNO for 30 minutes); GAPDH antibody-coupled agarose resin, overnight at 4°C, HEN buffer with 2.5% SDS; IgG-coupled resin as negative control; LC-MS/MS
[2] = molecular target: glyceraldehyde-3-phosphate dehydrogenase (mouse (endogenous in heart)) (UniProt P16858); test: affinity purification with mass spectrometry; cytosolic fraction of Langendorff-perfused mouse hearts (control perfusion or 100 µmol/L GSNO for 30 minutes); GAPDH antibody-coupled agarose resin, overnight at 4°C, HEN buffer with 2.5% SDS; IgG-coupled resin as negative control; LC-MS/MS

Row | Molecule | binding [1] | binding [2]
1 | Myosin4 (from UniProt Q5SX39 1-1939) | binds | –
2 | Myosin-6 (from UniProt Q02566 1-1938) | binds | –
3 | Tubulin β-6 (from UniProt Q922F4 1-447) | – | binds
4 | Cytochrome C oxidase 6C (from UniProt Q9CPQ1 1-76) | binds | –
5 | 60 kDa heat shock protein (from UniProt P63038 27-573) | binds | –
6 | Tubulin β-2C chain (from UniProt P68372 1-445) | – | binds
7 | Tubulin-α-1C (from UniProt P68373 1-449) | – | binds
8 | B1 | – | binds
9 | B2 | – | binds
10 | B3 | binds | –
11 | B4 | binds | –
12 | B5 | binds | –
13 | B6 | binds | –
14 | B7 | – | binds
